What all share (assay): co-IP; immunoprecipitation (1.5 h, Pansorbin) with anti-CBL, anti-CBLB, anti-CSK, anti-CRKL or anti-p85-PI3K from lysates (n-dodecyl-β-maltoside) of expanded mouse CD4+ T cells, unstimulated or stimulated 1 min with anti-CD3 + anti-CD4; immunoblot; isotype control; cells of wild-type, Cblb-/-, Cbl-/- and Cd5-/- mice
(A western blot detects proteins with antibodies after separation by electrophoresis.)

The chains behind the UniProt entries cited, without tags or fusion partners.
UniProt O08908: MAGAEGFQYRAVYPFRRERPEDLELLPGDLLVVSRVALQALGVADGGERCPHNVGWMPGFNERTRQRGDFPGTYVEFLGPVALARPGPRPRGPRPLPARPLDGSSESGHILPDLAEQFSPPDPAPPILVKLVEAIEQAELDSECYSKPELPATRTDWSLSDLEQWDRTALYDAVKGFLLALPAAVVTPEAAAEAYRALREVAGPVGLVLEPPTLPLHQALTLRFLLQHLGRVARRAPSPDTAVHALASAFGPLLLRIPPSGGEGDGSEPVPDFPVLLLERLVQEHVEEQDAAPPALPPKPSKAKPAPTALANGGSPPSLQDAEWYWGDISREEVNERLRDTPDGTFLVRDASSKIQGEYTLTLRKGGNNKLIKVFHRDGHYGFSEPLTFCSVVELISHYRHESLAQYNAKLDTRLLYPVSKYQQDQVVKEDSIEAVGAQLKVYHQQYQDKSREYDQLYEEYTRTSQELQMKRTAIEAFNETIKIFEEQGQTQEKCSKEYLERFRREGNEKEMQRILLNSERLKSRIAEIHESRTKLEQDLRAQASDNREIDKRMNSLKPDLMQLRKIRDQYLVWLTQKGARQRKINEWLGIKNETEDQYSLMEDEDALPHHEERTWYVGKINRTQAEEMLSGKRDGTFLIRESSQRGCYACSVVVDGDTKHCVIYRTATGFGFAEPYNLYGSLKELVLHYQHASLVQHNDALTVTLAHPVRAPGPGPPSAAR
UniProt Q3TTA7: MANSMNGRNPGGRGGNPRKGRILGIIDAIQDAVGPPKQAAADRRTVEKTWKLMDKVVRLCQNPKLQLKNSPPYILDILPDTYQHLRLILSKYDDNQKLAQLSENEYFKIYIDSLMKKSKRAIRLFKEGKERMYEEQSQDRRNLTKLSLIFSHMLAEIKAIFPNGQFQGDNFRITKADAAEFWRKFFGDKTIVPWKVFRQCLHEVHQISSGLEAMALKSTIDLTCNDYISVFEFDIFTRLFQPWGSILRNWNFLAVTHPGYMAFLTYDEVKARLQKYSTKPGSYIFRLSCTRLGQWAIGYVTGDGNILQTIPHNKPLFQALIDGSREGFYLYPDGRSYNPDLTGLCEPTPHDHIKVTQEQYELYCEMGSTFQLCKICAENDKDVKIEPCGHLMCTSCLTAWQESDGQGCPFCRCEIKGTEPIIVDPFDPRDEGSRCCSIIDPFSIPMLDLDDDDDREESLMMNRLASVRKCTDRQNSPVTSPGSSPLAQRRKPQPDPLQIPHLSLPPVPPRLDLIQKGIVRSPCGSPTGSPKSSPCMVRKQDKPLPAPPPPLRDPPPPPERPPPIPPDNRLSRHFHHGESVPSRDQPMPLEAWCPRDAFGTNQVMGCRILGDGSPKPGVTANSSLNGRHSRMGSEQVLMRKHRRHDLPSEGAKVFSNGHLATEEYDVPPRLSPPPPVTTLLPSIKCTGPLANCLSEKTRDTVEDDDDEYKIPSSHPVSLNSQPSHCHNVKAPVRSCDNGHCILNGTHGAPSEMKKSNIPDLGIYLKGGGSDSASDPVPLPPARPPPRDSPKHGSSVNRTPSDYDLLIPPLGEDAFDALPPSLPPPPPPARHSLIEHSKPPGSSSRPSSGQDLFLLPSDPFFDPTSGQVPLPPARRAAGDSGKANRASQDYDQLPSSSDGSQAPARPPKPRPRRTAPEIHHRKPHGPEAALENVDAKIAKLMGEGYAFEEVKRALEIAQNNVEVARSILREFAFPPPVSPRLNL
UniProt P41241: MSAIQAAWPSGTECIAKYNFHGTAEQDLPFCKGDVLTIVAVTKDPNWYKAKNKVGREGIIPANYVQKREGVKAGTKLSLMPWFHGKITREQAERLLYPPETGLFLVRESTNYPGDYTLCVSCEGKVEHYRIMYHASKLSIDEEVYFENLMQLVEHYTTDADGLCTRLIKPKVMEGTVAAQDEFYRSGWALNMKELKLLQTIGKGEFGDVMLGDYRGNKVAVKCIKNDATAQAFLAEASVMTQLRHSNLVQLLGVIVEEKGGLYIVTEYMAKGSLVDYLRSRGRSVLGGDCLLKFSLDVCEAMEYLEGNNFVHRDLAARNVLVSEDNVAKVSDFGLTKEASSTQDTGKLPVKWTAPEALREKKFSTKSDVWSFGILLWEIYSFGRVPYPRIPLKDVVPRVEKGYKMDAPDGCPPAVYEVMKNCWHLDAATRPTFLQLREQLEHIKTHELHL

Test [1] deals with PIK3R2 (mouse (endogenous in CD4+ T cells)) (UniProt O08908).
The target of test [2] is CBLB (mouse (endogenous in CD4+ T cells)) (UniProt Q3TTA7).
Test [3] deals with CBL (mouse (endogenous in CD4+ T cells)) (UniProt P22682).
The target in test [4] is CSK (mouse (endogenous in CD4+ T cells)) (UniProt P41241).

These are yes or no findings as the source states them, for the method shown. Binding seen in cells or lysates may run through a third protein. Some binding calls cover weakened binding; strength is not graded here.

B1: CD5 (receptor, UniProt P13379 24-494)
chain: QSGRGGLDIQVMLSGSNSKCQGQVEIQMENKWKTVCSSSWRLSQDHSKNAQQASAVCKQLRCGDPLALGPFPSLNRPQNQVFCQGSPWSISNCNNTSSQDQCLPLSLICLEPQRTTPPPTTTPPTTVPEPTAPPRLQLVPGHEGLRCTGVVEFYNGSWGGTILYKAKDRPLGLGNLICKSLQCGSFLTHLSGTEAAGTPAPAELRDPRPLPIRWEAPNGSCVSLQQCFQKTTAQEGGQALTVICSDFQPKVQSRLVGGSSVCEGIAEVRQRSQWEALCDSSAARGRGRWEELCREQQCGDLISFHTVDADKTSPGFLCAQEKLSQCYHLQKKKHCNKRVFVTCQDPNPAGLAPGTVASIILTLVLLVVLLAMCGPLVYKKLVKKFRQKKQRQWIGPTGVNQNMSFHRSHTATVRSQVENPTASHVDNEYSQPPRNSHLSAYPALEGALHRSSTQPDNSSDSDYDLQVAQRL
As for B1, the binding entry in test [1] is “no binding”; in test [2] it was “binds”; in test [3], “binds”; in test [4], “binds”.

The record behind these values is PMC4965873.
